For the test, the system named is rabbit eyes with high intraocular pressure induced by magnetic beads. As to the kind of experiment: Model of magnetic bead induced high intraocular pressure rabbit (intraocular pressure >30 mmHg). Type of test: in vivo, New Zealand white rabbit. To be noted: dose 0.02%, experiment of Table 12.

Molecules are shown by their SMILES. Certain results were filed several times, with different values. The other results are left out here. There may be further records. Results that share an entry do not match, cause unknown; some may be repeats, others may stem from another dose, organism or construct than stated.

For `Cc1ccc(C(=O)OCc2ccc([C@@H](CN)C(=O)Nc3ccc4cnccc4c3)cc2)c(C)c1` [AR-13324, Netarsudil], the “Maximum intraocular pressure difference (mmHg)” value was “about 4.3±1.4 mmHg and 4.3 ± 1.4 mmHg”.

(Values after US11608319B2, “Beta-amino acid derivative, kinase inhibitor and pharmaceutical composition containing the same, and method for performing an in vivo related application that benefits from the inhibition of a kinase” (Industrial Technology Research Institute, priority 2019, dated 2023).)
